Measurements as given in article PMC5222588, “Binding of Myomesin to Obscurin-Like-1 at the Muscle M-Band Provides a Strategy for Isoform-Specific Mechanical Protection” (Structure(London, England:1993), 2017).

Sequences of proteins named here, by UniProt entry; tags and fusion partners are left off. A change or cut given only in a name is not applied to a line headed by its entry.
UniProt P52179: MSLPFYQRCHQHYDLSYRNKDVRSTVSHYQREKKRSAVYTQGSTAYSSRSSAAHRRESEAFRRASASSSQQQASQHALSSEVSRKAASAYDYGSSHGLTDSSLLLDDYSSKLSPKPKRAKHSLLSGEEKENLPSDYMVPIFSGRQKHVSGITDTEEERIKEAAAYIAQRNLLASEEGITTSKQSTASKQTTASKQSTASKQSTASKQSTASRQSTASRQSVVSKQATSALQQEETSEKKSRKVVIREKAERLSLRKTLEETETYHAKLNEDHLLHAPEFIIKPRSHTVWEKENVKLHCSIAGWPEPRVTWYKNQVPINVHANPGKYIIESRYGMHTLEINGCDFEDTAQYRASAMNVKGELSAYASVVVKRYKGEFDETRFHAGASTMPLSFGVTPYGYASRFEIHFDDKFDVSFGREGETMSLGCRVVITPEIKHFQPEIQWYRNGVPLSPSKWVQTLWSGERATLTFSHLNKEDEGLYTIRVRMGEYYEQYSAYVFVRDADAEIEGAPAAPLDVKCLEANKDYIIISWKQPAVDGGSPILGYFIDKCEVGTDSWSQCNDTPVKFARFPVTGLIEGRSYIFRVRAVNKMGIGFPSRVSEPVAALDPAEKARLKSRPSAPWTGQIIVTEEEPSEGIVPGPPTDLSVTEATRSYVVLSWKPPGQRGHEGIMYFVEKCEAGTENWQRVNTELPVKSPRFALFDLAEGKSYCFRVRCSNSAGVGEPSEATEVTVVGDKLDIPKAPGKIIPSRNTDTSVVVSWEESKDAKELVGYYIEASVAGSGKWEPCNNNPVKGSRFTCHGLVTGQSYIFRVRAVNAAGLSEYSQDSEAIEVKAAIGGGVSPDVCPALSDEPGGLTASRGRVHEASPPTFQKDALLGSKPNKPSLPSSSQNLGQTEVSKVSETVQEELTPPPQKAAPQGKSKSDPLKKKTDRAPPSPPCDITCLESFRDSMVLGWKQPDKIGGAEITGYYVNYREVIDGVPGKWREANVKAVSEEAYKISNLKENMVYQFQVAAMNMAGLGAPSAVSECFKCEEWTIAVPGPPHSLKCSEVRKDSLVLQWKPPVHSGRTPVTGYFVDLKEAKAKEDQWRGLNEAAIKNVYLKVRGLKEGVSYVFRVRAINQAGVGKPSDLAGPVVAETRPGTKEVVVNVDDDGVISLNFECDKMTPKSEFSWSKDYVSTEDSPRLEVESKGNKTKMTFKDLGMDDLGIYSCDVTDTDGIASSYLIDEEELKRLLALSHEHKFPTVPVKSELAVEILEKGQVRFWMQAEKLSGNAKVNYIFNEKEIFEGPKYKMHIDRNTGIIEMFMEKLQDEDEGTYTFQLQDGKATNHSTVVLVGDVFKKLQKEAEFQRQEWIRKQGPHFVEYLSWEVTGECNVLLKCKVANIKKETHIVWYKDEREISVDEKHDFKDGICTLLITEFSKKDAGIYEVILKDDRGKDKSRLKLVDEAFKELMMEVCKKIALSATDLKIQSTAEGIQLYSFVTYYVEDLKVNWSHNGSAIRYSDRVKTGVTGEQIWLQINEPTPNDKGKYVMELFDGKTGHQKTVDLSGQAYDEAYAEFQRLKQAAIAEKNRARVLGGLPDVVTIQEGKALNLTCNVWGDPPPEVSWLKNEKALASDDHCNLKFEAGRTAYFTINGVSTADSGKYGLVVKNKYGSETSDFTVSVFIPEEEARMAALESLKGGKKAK

Target: T1, obscurin-like-1 third immunoglobulin domain (OL3) (human) (UniProt O75147)
T1 sequence: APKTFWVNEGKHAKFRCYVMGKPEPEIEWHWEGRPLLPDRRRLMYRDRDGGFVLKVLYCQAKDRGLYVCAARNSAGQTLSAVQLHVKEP
Experiment: SAXS; 0.5–4.5 mg/mL in 20 mM HEPES pH 7.5, 500 mM NaCl, 1 mM DTT; 18°C; BM29 (ESRF); both purified

myomesin My4L (fourth Fn-III domain with the linker L) (from UniProt P52179) (domain or fragment)
binding: binds

No constants are given. Whether binding was seen depends on the method and setting. A result given as binding can be weak or reduced; the word gives no strength.
